## Library screening results

Measurements from “University of Dundee, Small-Polar-MMV Screening Library” (2021), ChEMBL document CHEMBL3988442.

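Viability assay of Plasmodium falciparum sporozoites; the read-out is not stated. The concentration is filed as 10 mM, unlikely as a test dose, so the dose is not known. Higher reads as lower viability (inferred: compounds with an IC50 in retests scored well above the rest). Strong results were mostly tested again. About 34,000 compounds were tested under these conditions; 0.84% (about 280) showed 50% or more at least once.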

The filed quantity is “Percent Effect” (%). The record does not define 0% and 100%; most values in the screen are far below 50% and negative numbers occur (in some assays of this library far below -100). The compounds are a random part of those screened. Two or more numbers in one place are separate tests of the same structure; such repeats can differ widely.

With CSc1cc2c(cc1NC(=O)N(C)Cc1cnn(C)c1)OCCO2 the screen gave -8.586% and -15.51%.
With CCCN1C[C@H](NC(=O)c2cc(C)no2)[C@@H](c2ccc(OC)cc2)C1 the screen gave 11.52%.
With Cc1nc(C)n(CC2CCCN2CC(=O)Nc2cc(C(C)C)no2)n1 (centres undefined) the screen gave 4.645%.
With CCC(Nc1ccc(Oc2cccc(C#N)c2)cc1)C(N)=O (centres undefined) the screen gave 1.891%.
With O=C(NCC1CCOC1)c1ccc(-c2ccccc2)[nH]c1=O (centres undefined) the screen gave -14.54%.
With Cc1nc(NC(=O)c2c(-n3cnnn3)sc3c2CCCC3)sc1C the screen gave -3.938%.
With COCC(=O)N1CCC2(CC1)COCCN2Cc1ccc(F)cc1.O=C(O)C(F)(F)F the screen gave -12.25%.
With CCN(C(=O)Cc1ccc(NC(=O)NC2CC2)cc1)c1ccccc1 the screen gave -3.727%.
With COCc1nc(C(=O)N2CCCC2c2ccccc2C)cs1 (centres undefined) the screen gave -12.24% and -10.74% and -3.511%.
With CC(C)Sc1ccc(N2CCN(Cc3ccccn3)CC2)nn1 the screen gave -14.16%.
With COCCNc1c(-c2ccc(C)cc2)c(=O)c1=O the screen gave 2.238%.
With NC(=O)c1cc2c(nc1N)CCN(C(=O)C1CCCCC1)C2 the screen gave 8.258%.
With [H][C@@]12CN(S(C)(=O)=O)C[C@]1(C(=O)NC)CCC21CCN(C(=O)C(C)C)CC1 the screen gave 6.228%.
With Cc1cc(NC(=O)CN2CCN(c3nc(C)cs3)C(C)C2)on1 (centres undefined) the screen gave -3.843%.
With CN(C)C(=O)COCC1CN(Cc2ccsc2)Cc2nccn2C1 (centres undefined) the screen gave -2.497%.
With CCN(C(=O)COC)C(c1cccnc1)c1ccc2c(c1)CCO2 (centres undefined) the screen gave -0.6548%.
With COc1c(CNC(c2nccn2C)C(C)C)c(C)nn1C (centres undefined) the screen gave -4.946%.
With CCc1nccn1C1CCCN(C(=O)c2c(C)nsc2NC)C1 (centres undefined) the screen gave 10.32%.
With Cc1ccc(CNC(=O)N(C)Cc2cnn(C)c2)s1 the screen gave 3.307%.
With [H][C@@]12CCN(S(C)(=O)=O)[C@]1([H])CC[C@H](c1nc(C)no1)O2 the screen gave -8.117%.
With CN(Cc1ccc(F)cc1)C(=O)NCc1nnc2n1CCCCC2 the screen gave 5.51%.
With c1ccc(-c2cnc(CN3CCCC3Cn3cncn3)o2)cc1 (centres undefined) the screen gave -18.34%.
With Cc1nn(C)c(C)c1C1COCCN1C(=O)c1cc(F)ccc1F (centres undefined) the screen gave -6.239%.
With Cc1[nH]ncc1CCCNC(=O)N1CCCC(c2nncn2C)C1 (centres undefined) the screen gave 6.648%.
With Cc1nn(C)c(N(C)C)c1CNCCCN(C(C)C)S(C)(=O)=O the screen gave 12.93%.
With CSCc1ccc(C(=O)N2CCN(CC(C)O)CC2)cc1 (centres undefined) the screen gave -1.459%.
With O=C(O)C(F)(F)F.[H][C@@]12COC[C@]1(CNS(C)(=O)=O)CN(Cc1cc(C)on1)C2 the screen gave 9.596%.
With CCN1CCCCC1C(=O)N1CCC(OC2CCCC2)CC1 (centres undefined) the screen gave -1.74%.
With CCOc1ncccc1CNCc1c(C)nn(C)c1N(C)C the screen gave 8.59%.
With CCN(Cc1nc2c(cnn2C)c(=O)[nH]1)c1cccc(C)c1 the screen gave 0.7402%.
With Cc1cc(N2CCN(Cc3ccnn3C)CC2)cc(C2CCCN2)n1.Cl (centres undefined) the screen gave 8.564%.
With CCOC1COC2(CCN(c3ncc(C)cn3)CC2)C1 (centres undefined) the screen gave -1.906%.
With CCc1ncc2c(n1)CN(CC(=O)Nc1cc(C)on1)CC2 the screen gave 3.286%.
With O=C(Cc1ccccn1)N1CCC2(CC1)CC(Oc1ccccn1)CO2.O=C(O)C(F)(F)F.O=C(O)C(F)(F)F (centres undefined) the screen gave -2.422%.
With COc1cccc(C(=O)N2CCOC3(CCCN(C(C)=O)C3)C2)c1 (centres undefined) the screen gave 4.038%.
With COCCC(=O)N1CCCC2(CCC(=O)N2CCOC)CC1 (centres undefined) the screen gave 9.922%.
With CS(=O)(=O)NC1CCCN(C(=O)Nc2cccnc2)C1 (centres undefined) the screen gave 2.211%.
With Cc1nc(C)n(CC2CCCN(CCCc3ccccc3)C2)n1 (centres undefined) the screen gave 4.895%.
With COCCNc1c(-c2ccc(Cl)cc2)c(=O)c1=O the screen gave -4.208%.
With Cc1ccc(C(=O)N2CCN(CCCSCC#N)CC2)o1 the screen gave -11.13%.
With CCNC(=O)c1ccoc1CN1c2ccccc2CC1C (centres undefined) the screen gave -5.519%.
With Cc1nc(Nc2nncs2)cc(C2CCCN2C)n1 (centres undefined) the screen gave 13.41%.
With CCc1nc2n(n1)CC(Nc1cc(C)nc3ncnn13)CC2 (centres undefined) the screen gave -9.091%.
With COc1cc(CNC(C)Cn2cccn2)cc2c1OCO2.Cl (centres undefined) the screen gave -3.52%.
With [H][C@@]12CS(=O)(=O)C[C@]1([H])N(C(=O)c1ccnc(N)c1)CCN2CCC the screen gave -7.166%.
With Cc1oncc1C(=O)NCc1cc(=O)n2c(n1)CN(CC(C)C)CCC2.O=C(O)C(F)(F)F the screen gave -27.35%.
With CC(C)NC(=O)N1CCC2(CC1)Cc1ccccc1CNC2=O the screen gave 8.647%.
With CCC(=O)N1CCC(c2cc(Nc3ncccn3)nc(C)n2)C1 (centres undefined) the screen gave 5.542%.

The first 3 entries again:

* CSc1cc2c(cc1NC(=O)N(C)Cc1cnn(C)c1)OCCO2 | -8.586% and -15.51%
* CCCN1C[C@H](NC(=O)c2cc(C)no2)[C@@H](c2ccc(OC)cc2)C1 | 11.52%
* Cc1nc(C)n(CC2CCCN2CC(=O)Nc2cc(C(C)C)no2)n1 (centres undefined) | 4.645%